Measured values taken from PubChem BioAssay AID587 (National Center for Advancing Translational Sciences (NCATS), 2007).
The whole screen tested about 59,000 compounds, of which about 35 (0.06%) were called active. The inconclusive results got no clear call from the source; some entries with a clear call stand among them for comparison. Rule as the data show it: active = max dye-equivalent concentration above about 10 nM; inconclusive = between about 1.1 nM and that limit; inactive = weaker than that.

Test: qHTS Assay for Spectroscopic Profiling in Texas Red Spectral Region
Settings: Compound fluorescence, Texas Red channel, 547/618 nm; stronger effect = higher value
Outline: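 Dye-equivalent concentrations come from scaling compound signal (ex 547, em 618 nm) to six Texas Red standard concentrations run on every plate, after 15 min room-temperature incubation in pH 8.0 Tris (100 mM).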

Structure (SMILES)	max dye-equivalent concentration
CN=Cc1sc2ccccc2c1O	inactive
COc1ccc(/C=N/n2c(N)nc3ccccc32)cc1OC	inconclusive: 1.3 nM
COc1cccc(-c2cc(C(F)(F)F)nc(-n3cncn3)n2)c1	inconclusive: 1.9 nM
CCOc1ccc(N(CC(=O)NC2CCCC2)C(=O)CCC(=O)Nc2ccccn2)cc1	inconclusive: 1.7 nM
Cc1cc(Nc2ccccc2)n(CCOC(=O)COc2ccccc2)n1	inconclusive: 1.4 nM
CCCN1C(=O)C(NC(C)=O)c2cc(OC)ccc21 (stereo not drawn)	inconclusive: 1.1 nM
C=CCOn1c(=O)c(-c2ccc(OC)cc2)[n+]([O-])c2ccccc21	inconclusive: 1.1 nM
CCc1ccccc1NC(=O)CSc1nc2c(c(-c3ccco3)c1C#N)CCCC2	inconclusive: 1.3 nM
O=C(c1cc(C(F)(F)F)cc(C(F)(F)F)c1)N1CCC2(CC1)CCN(c1ccncc1)CC2	inactive
Cc1onc(-c2ccccc2)c1C(=O)Nc1nnc(-c2ccncc2)s1	inconclusive: 2.3 nM
CCCN=C(N)/C(C(=O)OCC)=C(\O)c1ccc(OC)cc1	inconclusive: 1.5 nM
CN(C)S(=O)(=O)N(Cc1ccc(Br)cc1)c1ccccc1	inconclusive: 1.8 nM
CCn1c2ccc(CC(=O)O)cc2c2cc(CC(=O)O)ccc21	inconclusive: 1.2 nM
CCCn1c(=O)c2ccccc2n2c(SCCOc3ccc(C)cc3)nnc12	inconclusive: 1.4 nM
O=C(O)c1ccc(S(=O)(=O)c2ccccc2)cc1	inconclusive: 1.7 nM
OCCN1CN=C(Nc2nc3ccccc3o2)NC1	inconclusive: 1.7 nM
Cc1noc(C)c1COC(=O)CCCc1c[nH]c2ccccc12	inconclusive: 1.1 nM
O=C(O)COCCN1CCN([C@@H](c2ccccc2)c2ccc(Cl)cc2)CC1	inconclusive: 1.1 nM
Cc1ccc(S(=O)(=O)NCCC(=O)N2CCCCC2)cc1	inconclusive: 1.2 nM
C[C@@H](CCc1ccc(O)cc1)NCCc1ccc(O)c(O)c1	inconclusive: 1.1 nM
CS/C(=N\S(=O)(=O)c1ccc(N)cc1)NS(=O)(=O)c1cccs1	inconclusive: 2.2 nM

For convenience, part of the list above:
Structure (SMILES)	max dye-equivalent concentration
Cc1cc(Nc2ccccc2)n(CCOC(=O)COc2ccccc2)n1	inconclusive: 1.4 nM
CCCN1C(=O)C(NC(C)=O)c2cc(OC)ccc21 (stereo not drawn)	inconclusive: 1.1 nM
C=CCOn1c(=O)c(-c2ccc(OC)cc2)[n+]([O-])c2ccccc21	inconclusive: 1.1 nM
CCc1ccccc1NC(=O)CSc1nc2c(c(-c3ccco3)c1C#N)CCCC2	inconclusive: 1.3 nM
O=C(c1cc(C(F)(F)F)cc(C(F)(F)F)c1)N1CCC2(CC1)CCN(c1ccncc1)CC2	inactive
Cc1onc(-c2ccccc2)c1C(=O)Nc1nnc(-c2ccncc2)s1	inconclusive: 2.3 nM
CCCN=C(N)/C(C(=O)OCC)=C(\O)c1ccc(OC)cc1	inconclusive: 1.5 nM
CN(C)S(=O)(=O)N(Cc1ccc(Br)cc1)c1ccccc1	inconclusive: 1.8 nM
CCn1c2ccc(CC(=O)O)cc2c2cc(CC(=O)O)ccc21	inconclusive: 1.2 nM
CCCn1c(=O)c2ccccc2n2c(SCCOc3ccc(C)cc3)nnc12	inconclusive: 1.4 nM
O=C(O)c1ccc(S(=O)(=O)c2ccccc2)cc1	inconclusive: 1.7 nM
OCCN1CN=C(Nc2nc3ccccc3o2)NC1	inconclusive: 1.7 nM
Cc1noc(C)c1COC(=O)CCCc1c[nH]c2ccccc12	inconclusive: 1.1 nM
O=C(O)COCCN1CCN([C@@H](c2ccccc2)c2ccc(Cl)cc2)CC1	inconclusive: 1.1 nM
Cc1ccc(S(=O)(=O)NCCC(=O)N2CCCCC2)cc1	inconclusive: 1.2 nM
C[C@@H](CCc1ccc(O)cc1)NCCc1ccc(O)c(O)c1	inconclusive: 1.1 nM
CS/C(=N\S(=O)(=O)c1ccc(N)cc1)NS(=O)(=O)c1cccs1	inconclusive: 2.2 nM

Additional records follow.

Structure (SMILES)	max dye-equivalent concentration
CCn1cc(Br)c(-c2nc3ccccc3c(=O)n2N)n1	inconclusive: 1.3 nM
CCCCN(CCCNC(=O)C1CCN(S(=O)(=O)N2CCOCC2)CC1)Cc1ccccc1	inconclusive: 1.1 nM
c1ccc2c(-c3nc(C4CCCCC4)no3)cc(-c3ccncc3)nc2c1	inconclusive: 1.1 nM
Cc1ccc(C(=O)O[C@@H](C(=O)O)[C@@H](OC(=O)c2ccc(C)cc2)C(=O)O)cc1 (tested in a mixture with another compound)	inactive
Cn1c(NCc2ccccc2)cc(=O)n(C)c1=O	inconclusive: 1.8 nM
CCCCCn1c(CCNC(=O)c2cccs2)nc2ccccc21	inconclusive: 1.5 nM
CCOC(=O)C1CCCN(CC(=O)Nc2c(C(=O)OC)[nH]c3ccc(Cl)cc23)C1 (stereo not drawn)	inconclusive: 1.3 nM
C[C@@H]1C[C@@]2(C)Oc3ccccc3[C@H]3OC[C@]1(COC(=O)Nc1ccccc1)[C@@H](C)[C@@H]32	inconclusive: 1.2 nM
CCOC(=O)C1CCN(C(=O)COC(=O)c2ccc(Br)o2)CC1	inconclusive: 1.5 nM
CCOC(=O)c1ccc(CC(=O)c2oc3cc(O)ccc3c2C)o1	inconclusive: 1.2 nM
Cn1nnnc1SCC(=O)N(C1CCCCC1)C1CCCCC1	inconclusive: 1.5 nM
c1ccc(Nc2cc(Nc3ccccc3)[nH]n2)cc1	inconclusive: 1.2 nM
CCOc1ccc(-c2nc(N)nc(C)c2-c2ccc(OC)c(OC)c2)c(O)c1	inconclusive: 1.6 nM
Cc1cccc(-n2c(SCC(N)=O)nnc2-c2ccccn2)c1C	inconclusive: 1.7 nM
CC(C)C(c1nnnn1CC1CCCO1)N1CCN(Cc2ccc3c(c2)OCO3)CC1 (stereo not drawn)	inconclusive: 1.8 nM
CC(=O)c1c(C)[nH]c(C(=O)Nc2ccc3c(c2)OCCO3)c1C	inconclusive: 1.1 nM
O=C(c1ccc2c(c1)OCCO2)N(c1ccccn1)C1CCCCC1	inconclusive: 1.1 nM
O=C(Cn1c(C(=O)NCCCN2CCOCC2)cc2sccc21)c1ccccc1	inconclusive: 1.2 nM
COc1cccc(-c2nnc(SCc3ccc(C#N)cc3)n2Cc2ccco2)c1	inconclusive: 1.2 nM
CCCN1CN(Cc2ccco2)c2nc3ccccc3n2C1	inconclusive: 2.1 nM
O=C(NC1CCCCCCC1)c1ccc2c(c1)N(Cc1ccc(F)cc1)C(=O)CS2=O (stereo not drawn)	inconclusive: 1.1 nM

Structure (SMILES)	max dye-equivalent concentration
O=C(Cn1nnc(-c2ccncc2)n1)N(C1CCCCC1)C1CCCCC1	inconclusive: 2.2 nM
O=C(c1ccco1)N1CCC2(CC1)CN(c1ccccn1)C2	inactive
CCN(CC)S(=O)(=O)c1ccc(F)c(C(=O)NCCCN2CCOCC2)c1	inconclusive: 1.3 nM
Cn1nccc1C(=O)OCC(=O)Nc1nc(-c2ccccc2)cs1	inconclusive: 2.2 nM
CCN(CC)S(=O)(=O)c1ccc(NC(=O)CSc2nnc(-c3ccc(F)cc3)o2)cc1	inconclusive: 1.1 nM
CC(C)c1nnc(NC(=O)CN(C)S(=O)(=O)c2ccc3c(c2)OCCO3)s1	inconclusive: 1.1 nM
O=C(Nc1cccc(-n2cnnn2)c1)c1ccco1	inconclusive: 1.1 nM
CCn1cc(C(=O)Nn2cnnc2)c(=O)c2ccc(C)nc21	inconclusive: 2.3 nM
CC1CN(C(=O)c2ccncc2)CC(C)O1 (stereo not drawn)	inconclusive: 1.2 nM
OCC(C#CCN1CCCCC1)NCc1ccccc1 (stereo not drawn)	inconclusive: 1.2 nM
CCn1cc(C(=O)NCc2ccco2)c(=O)c2cc(S(=O)(=O)N3CC(C)CC(C)C3)ccc21 (stereo not drawn)	inconclusive: 1.4 nM
CC(C)OCCCNc1ncc2c(n1)CC(c1ccc(N(C)C)cc1)CC2=O (stereo not drawn)	inconclusive: 1.1 nM
CS(=O)(=O)N1CCC(C(=O)Nc2ccc(Br)cc2F)CC1	inconclusive: 1.1 nM
C=CCn1cc(C(=O)NCC2CCCO2)c(=O)c2cc(S(=O)(=O)N3CCCCCC3)ccc21 (stereo not drawn)	inconclusive: 2 nM
CC12CCC(C(=O)NCCN3CCCCC3)(CC1=O)C2(C)C (stereo not drawn)	inconclusive: 1.6 nM
O=C(O)C1=C/C(=C(/c2ccccc2)c2cc(C(=O)O)c(O)c3ccccc23)c2ccccc2C1=O	inconclusive: 1.9 nM
CC1CCN(C(=O)Cn2c(=O)n(CCc3ccccc3)c(=O)c3ccccc32)CC1	inconclusive: 1.6 nM
CC1(C)[C@@H](O)CC[C@@]2(C)[C@H]1CC[C@]1(C)[C@H]2C(=O)C=C2[C@@H]3C[C@@](C)(C(=O)O)CC[C@]3(C)CC[C@@]21C	inactive
COc1ccc([C@@H]2OC[C@]3(COC(C)=O)[C@H](C)C=C(C)[C@@H]2[C@H]3C)cc1	inactive
CC(=O)N1C(=O)C2(C(C#N)=C(N)Oc3cc(C)oc(=O)c32)c2ccccc21 (stereo not drawn)	inconclusive: 1.2 nM
CCOc1ccccc1NC(=O)CSc1nnnn1Cc1ccccc1	inconclusive: 1.3 nM

Structure (SMILES)	max dye-equivalent concentration
CC(=C(CCOP(=O)(O)O)SC(=O)c1ccccc1)N(C=O)Cc1cnc(C)nc1N	inconclusive: 1.2 nM
CCNc1ncc2ncc(=O)n(CCc3ccccc3)c2n1	inactive
CCOc1cc(C(=O)N(C)Cc2cc3ccccc3[nH]c2=O)cc(OCC)c1OCC	inconclusive: 1.2 nM
CCOc1ccc(C(=O)C2CCN(CC(=O)Nc3ccccc3N3CCOCC3)CC2)cc1	inconclusive: 2 nM
CCc1nnc(NC(=O)CN2CCN(c3ccccc3OC)CC2)s1	inconclusive: 1.3 nM
CC(C)NC(=O)c1ccccc1-c1nc(-c2ccccc2Cl)no1	inconclusive: 1.3 nM
COC(=O)c1ccc(C)c(NC(=O)c2nn(C)c(=O)c3ccccc23)c1	inconclusive: 1.5 nM
COc1ccccc1NC(=O)N(Cc1ccc2c(c1)OCO2)Cc1nc2ccccc2c(=O)[nH]1	inconclusive: 1.2 nM
CCC(C)(C)NC(=O)C(c1cccn1C)N(C(=O)Cn1nnc2ccccc21)c1ccc(OC)cc1 (stereo not drawn)	inconclusive: 1.5 nM
O=C(O)[C@H]([C@H]1NCCS1)N1Cc2ccccc2C1	inactive
Cc1nc2ccccc2c(=O)n1/N=C/c1ccccn1	inconclusive: 1.4 nM
Cc1onc(-c2ccccc2Cl)c1C(=O)OCC(=O)c1ccc2c(c1)OCCO2	inconclusive: 2.6 nM
CCN(CC(=O)N1CCN(C)CC1)S(=O)(=O)c1ccc(Cl)cc1	inconclusive: 1.7 nM
COCCn1nnnc1C(c1cccc(OC)c1OC)N1CCN(C2CCCCC2)CC1 (stereo not drawn)	inconclusive: 1.6 nM
C1CCc2nnnn2CC1	inconclusive: 1.6 nM
O=c1ccn([C@H]2O[C@H](CO)[C@@H](O)[C@@H]2O)c(=O)[nH]1	inactive
COc1ccc(CNn2c(C)nc3ccccc3c2=O)cc1	inconclusive: 1.1 nM
O=S(=O)(Cc1ccccc1)NCc1cccnc1	inconclusive: 1.6 nM
O=C(Nc1ccccc1)OCCNC(=O)c1ccccc1	inconclusive: 1.1 nM
CCOc1ccccc1N(CC(=O)NC1CCCC1)C(=O)CCCC(=O)Nc1ccccn1	inconclusive: 1.7 nM
